Reference: PubChem BioAssay AID248 (DTP/NCI, 2004)
The list does not hold the whole screen: it gathers tests that were run many times, whatever their T/C, doses with no T/C, and many T/C values between a quarter and a half above the control. Other doses and runs of a compound stand elsewhere. T/C gives the treated animals as a percentage of the vehicle group. Some doses have a count of surviving animals in place of a T/C: the source files T/C as zero there, which appears to mark a toxic dose or a test without result, not a measured value. Some doses without a T/C left all or most animals alive at the check, yet need not have been tolerated: the source hardly ever lists a survival T/C far under the control, and the zero likely stands for such cases as well. Counts of survivors are from the toxicity check (mostly the fifth day) where no day follows; animals may have died later. Schedules are NCI's codes, read here as Q, the interval in days (D) or hours (H), X, the number of doses. Some doses were run more than once; the values are given in rising order. Signs of the kind (2×) say how often a value occurs here. For survival time, this PubChem deposit counts one and a half times the control or more as active, and values a quarter to a half above the control carry no call in these data; other NCI protocols may use other cut-offs. Some schedules carry Z or #; the key to these is not given. Some T/C values are followed by the survivors on the day toxicity was checked, most often the fifth; without a count, all were alive then.

System: L1210 leukemia ip in BDF1 mice, survival T/C
Assay: NCI In Vivo Anticancer Drug Screen. Data for tumor model L1210 Leukemia (intraperitoneal) in B6D2F1 (BDF1) mice
Conditions: T/C endpoint: mean survival time, higher T/C = longer survival
[1] = dose: 25.0 mg/kg/injection, schedule: Q01DX009 (ip), vehicle: Klucel (hydroxypropylcellulose) (HPC)
[2] = dose: 50.0 mg/kg/injection, schedule: Q01DX009 (ip), vehicle: Klucel (hydroxypropylcellulose) (HPC)
[3] = dose: 100.0 mg/kg/injection, schedule: Q01DX009 (ip), vehicle: Klucel (hydroxypropylcellulose) (HPC)
[4] = dose: 200.0 mg/kg/injection, schedule: Q01DX009 (ip), vehicle: Klucel (hydroxypropylcellulose) (HPC)
[5] = dose: 400.0 mg/kg/injection, schedule: Q01DX001 (ip), vehicle: carboxymethylcellulose (CMC)
[6] = dose: 100.0 mg/kg/injection, schedule: Q01DX009 (ip), vehicle: saline with Tween-80
[7] = dose: 100.0 mg/kg/injection, schedule: Q04DX003 (ip), vehicle: saline with Tween-80
[8] = dose: 200.0 mg/kg/injection, schedule: Q04DX003 (ip), vehicle: saline with Tween-80
[9] = dose: 400.0 mg/kg/injection, schedule: Q01DX009 (ip), vehicle: saline with Tween-80
[10] = dose: 400.0 mg/kg/injection, schedule: Q04DX003 (ip), vehicle: saline with Tween-80
[11] = dose: 50.0 mg/kg/injection, schedule: Q04DX002 (ip), vehicle: Klucel (hydroxypropylcellulose) (HPC)
[12] = dose: 100.0 mg/kg/injection, schedule: Q04DX002 (ip), vehicle: Klucel (hydroxypropylcellulose) (HPC)
[13] = dose: 200.0 mg/kg/injection, schedule: Q04DX002 (ip), vehicle: Klucel (hydroxypropylcellulose) (HPC)
[14] = dose: 400.0 mg/kg/injection, schedule: Q04DX002 (ip), vehicle: Klucel (hydroxypropylcellulose) (HPC)
[15] = dose: 200.0 mg/kg/injection, schedule: Q01DX009 (ip), vehicle: saline
[16] = dose: 200.0 mg/kg/injection, schedule: Q04DX003 (ip), vehicle: saline
[17] = dose: 400.0 mg/kg/injection, schedule: Q01DX009 (ip), vehicle: saline
[18] = dose: 400.0 mg/kg/injection, schedule: Q04DX003 (ip), vehicle: saline
[19] = dose: 400.0 mg/kg/injection, schedule: Q01DX009 (ip), vehicle: Klucel (hydroxypropylcellulose) (HPC)
[20] = dose: 200.0 mg/kg/injection, schedule: Q01DX009 (ip), vehicle: saline with Tween-80

CC(=O)c1cc(CN(CCCl)CCCl)c(O)c(CN(CCCl)CCCl)c1O
T/C (dose: 3.75 mg/kg/injection, schedule: Q01DX009 (ip), vehicle: carboxymethylcellulose (CMC)): 125 % of control | T/C (dose: 5.5 mg/kg/injection, schedule: Q01DX009 (ip), vehicle: Klucel (hydroxypropylcellulose) (HPC)): 126 % of control | T/C (dose: 7.5 mg/kg/injection, schedule: Q01DX009 (ip), vehicle: carboxymethylcellulose (CMC)): 125 % of control | T/C (dose: 8.3 mg/kg/injection, schedule: Q01DX009 (ip), vehicle: Klucel (hydroxypropylcellulose) (HPC)): 130 % of control | T/C (dose: 12.5 mg/kg/injection, schedule: Q01DX009 (ip), vehicle: Klucel (hydroxypropylcellulose) (HPC)): 118, 120, 129, 130 % of control | survivor count [1]: 4 of 6 | T/C (dose: 35.0 mg/kg/injection, schedule: Q01DX001 (ip), vehicle: carboxymethylcellulose (CMC)): 141 % of control | survivor count [2]: 0 of 6 | T/C (dose: 53.0 mg/kg/injection, schedule: Q01DX001 (ip), vehicle: carboxymethylcellulose (CMC)): 137 % of control | survivor count (dose: 60.0 mg/kg/injection, schedule: Q01DX009 (ip), vehicle: carboxymethylcellulose (CMC)): 2 of 6 | T/C (dose: 80.0 mg/kg/injection, schedule: Q01DX001 (ip), vehicle: carboxymethylcellulose (CMC)): 134 % of control | T/C (dose: 100.0 mg/kg/injection, schedule: Q01DX001 (ip), vehicle: carboxymethylcellulose (CMC)): 132 % of control | survivor count [3]: 0 of 6 | T/C (dose: 120.0 mg/kg/injection, schedule: Q01DX001 (ip), vehicle: carboxymethylcellulose (CMC)): 149 % of control | survivor count (dose: 120.0 mg/kg/injection, schedule: Q01DX009 (ip), vehicle: carboxymethylcellulose (CMC)): 0 of 6 | T/C (dose: 177.0 mg/kg/injection, schedule: Q01DX001 (ip), vehicle: carboxymethylcellulose (CMC)): 135 % of control [5 of 6 alive] | survivor count (dose: 180.0 mg/kg/injection, schedule: Q01DX001 (ip), vehicle: carboxymethylcellulose (CMC)): 2 of 6 | T/C (dose: 200.0 mg/kg/injection, schedule: Q01DX001 (ip), vehicle: carboxymethylcellulose (CMC)): 140 % of control | survivor count [4]: 0 of 6 | survivor count (dose: 266.0 mg/kg/injection, schedule: Q01DX001 (ip), vehicle: carboxymethylcellulose (CMC)): 3 of 6 | T/C [5]: 145 % of control [4 of 6 alive] | survivor count [5]: 0 of 6 | survivor count (dose: 600.0 mg/kg/injection, schedule: Q01DX001 (ip), vehicle: carboxymethylcellulose (CMC)): 0 of 6

O=C(NC(=S)Nc1cccc(C(F)(F)F)c1)c1cc([N+](=O)[O-])cc([N+](=O)[O-])c1
survivor count [6]: 3 of 3 | survivor count [7]: 6 of 6 | survivor count [8]: 6 of 6 | survivor count (dose: 400.0 mg/kg/injection, schedule: Q01DX001 (ip), vehicle: saline with Tween-80): 3 of 6 | survivor count [9]: 2 of 3 and 4 of 6 | survivor count [10]: 1 of 6

Cc1ccc(CN2C(=O)C=CC2=O)cc1
survivor count [11]: 3 of 3 | survivor count [12]: 0 of 3 | survivor count [13]: 0 of 3 | survivor count [14]: 0 of 3

CC(N)C(O)c1cccc(O)c1 (stereo not drawn)
survivor count [15]: 2 of 6 | survivor count [16]: 1 of 4 | survivor count [17]: 0 of 6 | survivor count [18]: 2 of 4

CCC(=O)NCC1(c2ccccc2)CCN(CC2COc3ccccc3O2)CC1 (stereo not drawn)
survivor count [16]: 0 of 6 | survivor count [18]: 0 of 6

C=C(C)COc1ccccc1
survivor count [19]: 2 of 3

CCOc1cccc(OC(C)=O)c1
survivor count (dose: 300.0 mg/kg/injection, schedule: Q01DX001 (ip), vehicle: carboxymethylcellulose (CMC)): 3 of 6

Cc1ccc(CCl)cc1
survivor count [9]: 0 of 6

CC(Cc1ccccc1)N1C(=O)C=CC1=O (stereo not drawn)
survivor count [1]: 5 of 6 | survivor count [2]: 0 of 6 | survivor count [3]: 0 of 6 | survivor count [4]: 0 of 6 | survivor count [19]: 0 of 6

CCOC(=O)c1ccc(NCC#N)cc1
survivor count [6]: 6 of 6

CCCC1(CC)C(=O)N=C(N)NC1=O (stereo not drawn)
survivor count (dose: 100.0 mg/kg/injection, schedule: Q01DX001 (ip), vehicle: Klucel (hydroxypropylcellulose) (HPC)): 0 of 3

C=CCN1C(=O)C=CC1=O
survivor count (dose: 12.0 mg/kg/injection, schedule: Q04DX002 (ip), vehicle: Klucel (hydroxypropylcellulose) (HPC)): 0 of 3 | survivor count (dose: 25.0 mg/kg/injection, schedule: Q04DX002 (ip), vehicle: Klucel (hydroxypropylcellulose) (HPC)): 0 of 3 | survivor count [11]: 0 of 3 | survivor count [12]: 0 of 3 | survivor count [13]: 0 of 3 | survivor count [14]: 0 of 3

CS(=O)(=O)OCC(O)C(O)COS(C)(=O)=O (stereo not drawn)
T/C (dose: 50.0 mg/kg/injection, schedule: Q01DX009 (ip), vehicle: saline): 97, 100, 113, 119 % of control | T/C (dose: 100.0 mg/kg/injection, schedule: Q01DX009 (ip), vehicle: saline): 100, 107, 113, 143 % of control | T/C [15]: 105, 108, 111, 182 % of control | T/C [17]: 106, 108, 112, 113 % of control | T/C (dose: 400.0 mg/kg/injection, schedule: Q01DX010 (ip), vehicle: saline): 125 % of control | T/C (dose: 1000.0 mg/kg/injection, schedule: Q01DX Z (ip), vehicle: carboxymethylcellulose (CMC)): 132 % of control

O=S(c1ccccc1)c1c(Cl)c(Cl)nc(Cl)c1Cl (stereo not drawn)
survivor count [2]: 0 of 6 | survivor count [3]: 0 of 6 | survivor count [4]: 0 of 6 | survivor count (dose: 400.0 mg/kg/injection, schedule: Q04DX003 (ip), vehicle: Klucel (hydroxypropylcellulose) (HPC)): 0 of 6

CC[N+](C)(CC)CCOC(=O)C1C2CC3OC(=O)C1C3C2 (stereo not drawn)
survivor count [18]: 1 of 3

C=CCOCC(O)C[As](=O)(O)c1ccc(Cl)cc1 (stereo not drawn)
survivor count (dose: 25.0 mg/kg/injection, schedule: Q04DX003 (ip), vehicle: saline with Tween-80): 0 of 6 | survivor count (dose: 50.0 mg/kg/injection, schedule: Q04DX003 (ip), vehicle: saline with Tween-80): 0 of 6 | survivor count [7]: 0 of 6 (2×) | survivor count [8]: 0 of 6 | survivor count [10]: 0 of 6

[Cl][Hg][c]1ccccc1N=Nc1ccccc1
survivor count (dose: 25.0 mg/kg/injection, schedule: Q01DX009 (ip), vehicle: saline with Tween-80): 3 of 6 | survivor count (dose: 50.0 mg/kg/injection, schedule: Q01DX009 (ip), vehicle: saline with Tween-80): 0 of 6 | survivor count [6]: 0 of 6 | survivor count [20]: 0 of 6 | survivor count [9]: 0 of 6

CN(C)c1ccc(C(C#N)=C(C#N)C#N)cc1
survivor count (dose: 400.0 mg/kg/injection, schedule: Q01DX009 (ip), vehicle: acetone): 4 of 6

CCOC(=O)CNC(=O)Oc1ccc(C=O)cc1OC
survivor count [6]: 6 of 6 | survivor count [20]: 3 of 6 | survivor count [9]: 0 of 6

CCCCOP(=O)(c1ccccc1)N1CCCCC1 (stereo not drawn)
survivor count (dose: 200.0 mg/kg/injection, schedule: Q04DX002 (ip), vehicle: saline with Tween-80): 1 of 3 | survivor count (dose: 400.0 mg/kg/injection, schedule: Q04DX002 (ip), vehicle: saline with Tween-80): 0 of 3

CC(C)CCNNCCC(C)C
survivor count (dose: 300.0 mg/kg/injection, schedule: Q01DX001 (ip), vehicle: other): 0 of 6
